Measurements reported in the supplement of paper PMC5949888.
Most values lie at the floor of the assay. Slopes are relative: functional sequences can read slightly below zero.

Tested on: Saccharomyces cerevisiae PS128 hsf1 delta, HSF1(1-493) fusion
Experiment: growth estimate (transactivation domain function in HSF1 fusion, heat-shock survival) (a.u. (slope of normalised read count over time)); higher = stronger growth at 37°C, i.e. more transactivation activity
Settings: library: random library

Row | Substance | growth estimate
1 | VGQQPEHL | < -0.25
2 | SLRFMERCLSRSYRFQG | < -0.25
3 | GYPEDPVHHGGRISGNPPVF | < -0.25
4 | VEVLSKDDVKIATALPACIS | < -0.25
5 | SLNLSELQGRPIT | < -0.25
6 | YHRQADVEMRDWCLMAALHL | < -0.25
7 | VRIL | < -0.25
8 | GLSLIHARGNHGL | < -0.25
9 | YVKQSG | < -0.25
10 | VLGIPPGMFFAATIILAACY | -0.246
11 | ERRFTHFARLGPLRLSAARG | < -0.25
12 | AVFV | < -0.25
13 | MYLHVVRRCVVRWVLGSPKL | < -0.25
14 | DAGLSAGPS | < -0.25
15 | TSV | < -0.25
16 | IPSSYVSVSMFGE | < -0.25
17 | GCVMWISRVWQYRRWYRVNS | < -0.25
18 | ARSAPCISGMIGSWVVTQLV | < -0.25
19 | IRCWCISIEMRKF | < -0.25
20 | YYMAQCEPTGLISS | < -0.25
21 | SPRCQLECYGRASPGLLSLR | < -0.25
22 | IHFMLDRESHGTRF | < -0.25
23 | MLGSYAWLCACFDLQKRRFQ | < -0.25

Row | Substance | growth estimate
24 | FDQALLSDITSANHPSSVNP | < -0.25
25 | QQVKTSW | < -0.25
26 | VEKLTYEPRILLGITGNQTR | < -0.25
27 | RARR | < -0.25
28 | RYQGSWRFTRVLAVK | < -0.25
29 | GRQPTNVSLVGINLHASALA | < -0.25
30 | PSASDGVESGVPLTASLGSP | < -0.25
31 | GTHCTVCATLDSGGFITLLH | < -0.25
32 | RSV | < -0.25
33 | SPPRP | < -0.25
34 | ACTVGTVVNVRPNSCIWQMR | < -0.25
35 | GSDEAN | < -0.25
36 | ALDLKY | -0.243
37 | ARPRAIRGAIERGQVCRPQK | < -0.25
38 | SETCRLGVRDPNSARPACEV | < -0.25
39 | LPVGGYR | < -0.25
40 | SLALSSGARNSRRAFTQSTY | < -0.25
41 | ILMEALKNLKVQCPEKASAS | < -0.25
42 | LGDGFAVLRVQLLYARSLEQ | < -0.25
43 | DRANPNHQRSARPPFYWPIG | < -0.25
44 | ESRGDELYQACCRHVVLSLP | < -0.25
45 | RDKCRRIVIFGVMTWFVNSN | < -0.25
46 | GVGGYVLSNERGNLSTGPGV | < -0.25

Part of the list above, tab-delimited.
Row	Substance	growth estimate
44	ESRGDELYQACCRHVVLSLP	< -0.25
45	RDKCRRIVIFGVMTWFVNSN	< -0.25
46	GVGGYVLSNERGNLSTGPGV	< -0.25

More records follow.

Row | Substance | growth estimate
47 | RVVLDYRHCSYLVNIPEGNS | < -0.25
48 | VFM | < -0.25
49 | NLTWHRIG | < -0.25
50 | MGRGAKLDLRRMKL | < -0.25
51 | KGVDHHCQRSPSAKPGPGNV | < -0.25
52 | LVGTSRASLACLPTGLTDNV | < -0.25
53 | RPCPFNYLEPKP | < -0.25
54 | KRQAKFIYT | < -0.25
55 | YGRRPIGSVCPENDASPGAA | < -0.25
56 | RISDQSRDRQQFIRSWRYRG | < -0.25
57 | CMSLEQRDGMICSQECRGIT | < -0.25
58 | RKCSWCYCGSCL | < -0.25
59 | TILFFKE | < -0.25
60 | VWPCKGEGGYTTPSGCRPGT | < -0.25
61 | GLGQCRSCDTGQGYGRKFT | < -0.25
62 | HVQY | < -0.25
63 | NILLEYTHPLSYALWHCAPS | < -0.25
64 | GLNAVVVNTCTRTPQG | < -0.25
65 | QVYGLIA | < -0.25
66 | YHVPHTQACKGET | < -0.25
67 | SYCP | < -0.25
68 | LRRTSPCGCSGF | < -0.25
69 | LLV | < -0.25

Row | Substance | growth estimate
70 | RTATVSGRTCSVWQ | < -0.25
71 | LVLT | < -0.25
72 | CIR | < -0.25
73 | DSGYGGRGGAGIIVSLPSPC | < -0.25
74 | IVGPYLGRINGCCVMATRYS | < -0.25
75 | SQTAIYD | < -0.25
76 | VLLKHI | < -0.25
77 | DRLGR | < -0.25
78 | NRPCPQGRGLYSSLLAYPYR | < -0.25
79 | ISDSMPPCGQLWTSLIHRRG | < -0.25
80 | RIVNGCMGRWRNSRSSKVPS | < -0.25
81 | GIIIC | < -0.25
82 | STRSFTHFWS | < -0.25
83 | RLRNLSSFSLHDLVIAETQR | < -0.25
84 | ILLRGSQGRTGSSARLWQVH | < -0.25
85 | LAPALGRDARRNGGGL | < -0.25
86 | FQVRLTSFSVLSWKGRTNDV | < -0.25
87 | HLASNIPMH | < -0.25
88 | GACTRDEYHRG | < -0.25
89 | MSCLRPIEDCSVPHP | < -0.25
90 | NGCRRDFKHEPWALSHARGR | -0.246
91 | LIHLR | < -0.25
92 | SKRTSM | < -0.25

Five entries from above, with tabs:
Row	Substance	growth estimate
75	SQTAIYD	< -0.25
77	DRLGR	< -0.25
81	GIIIC	< -0.25
85	LAPALGRDARRNGGGL	< -0.25
90	NGCRRDFKHEPWALSHARGR	-0.246

Next entries:

Row | Substance | growth estimate
93 | HSRVLPDARIRILRGV | < -0.25
94 | ARTGLETMGSTYSFKPSKND | < -0.25
95 | EVRSRDAFWLKRWNRSPRDQ | < -0.25
96 | YKTGRALPIKSKNLFTNESR | < -0.25
97 | DGTGWSVTFI | < -0.25
98 | LHGDGTERADGIRFRLSSGT | < -0.25
99 | ELGSLFHTESLVLSDC | -0.0491
100 | FGRVL | < -0.25
101 | TYWTTRYSHLAFV | < -0.25
102 | SITALVGLE | < -0.25
103 | VGQGIEGWFPGAAARLRGGI | < -0.25
104 | LGRVVRRADRRAVHITAGGM | < -0.25
105 | VPWILAGSHRGAM | < -0.25
106 | RPTQQCLRLGMSGIQGHPRC | < -0.25
107 | VPPLCPLVTFWQVHNSIRML | < -0.25
108 | AMQL | < -0.25
109 | TPQSGKEFFILPANFRGRV | < -0.25
110 | LRHPGLISAACQCGLNRLE | < -0.25
111 | LLLCFGIAIRIMPLSRRIIS | < -0.25
112 | CTRCF | < -0.25
113 | TLTEKPPDKVPLRARLFLEH | < -0.25
114 | TLA | < -0.25
115 | RVRAGHEIGSDSGH | < -0.25

Fetched one by one from the list above, 2 records:
Row | Substance | growth estimate
104 | LGRVVRRADRRAVHITAGGM | < -0.25
115 | RVRAGHEIGSDSGH | < -0.25

(cont.)

Row | Substance | growth estimate
116 | MVSNLANI | < -0.25
117 | HARIHI | < -0.25
118 | TRKAPYIRLAGRSVRLERSC | < -0.25
119 | EDNCYKSLVADERGPNVGVP | < -0.25
120 | VCSQLGLSIGSASQNRLLFS | < -0.25
121 | GGCLG | < -0.25
122 | YSTMFSCRDLVVLQEGAPLC | < -0.25
123 | TLAADFRIAC | < -0.25
124 | TVMLHGQRLDPGYGRRSDVY | < -0.25
125 | SLSIKPCCYELAALDDQT | < -0.25
126 | LARYIRFYVLYVTVT | < -0.25
127 | ANISFGRLRSRPWRAYSNPA | < -0.25
128 | YKCLCERLLQG | < -0.25
129 | KCRYAHPPCSKL | < -0.25
130 | STDGCRRINLRMSKMRLSSV | < -0.25
131 | LVHDKHNPERRSSLTVDTDT | -0.245
132 | RRLWRKAK | < -0.25
133 | PSREP | < -0.25
134 | RRSQSYRVQSEKLALGCRLS | < -0.25
135 | SGSWVPATNPGIGYVSTLDE | < -0.25
136 | YRTRVQDAKHANPT | < -0.25
137 | DSCYWATLASIGDLSDSIPV | < -0.25
138 | EPRRTLS | < -0.25

Row | Substance | growth estimate
139 | LSCQEPAI | < -0.25
140 | RAGSPGSGFWRRSLVLAMP | < -0.25
141 | STEERSGLQESCIQVFLT | < -0.25
142 | WNSPDTAYPQAARDMFRSR | < -0.25
143 | HGLTIEPPLPNSPYSAVMPA | < -0.25
144 | AALLHSDHGSRMRRTNER | < -0.25
145 | TAVKWWISWWTSSREIVIAK | < -0.25
146 | VDEMA | < -0.25
147 | CWFE | < -0.25
148 | RYNLTSVVRWSLRL | -0.245
149 | CCPAPNA | < -0.25
150 | GSGEKPMGHPGPTTLRV | -0.131
151 | WYVRSDMVQSDQTHGTVDFN | < -0.25
152 | GQFLREDTVGEVGVFNPPTP | < -0.25
153 | ASLRGSIRQIGVEGIRHKF | < -0.25
154 | NQSFSNVVGAPAVCR | < -0.25
155 | SEVVQARGTVAQL | < -0.25
156 | GLKSTTAGGAIALRRTADKH | 0.05
157 | PRPL | < -0.25
158 | VAFAGSEPS | -0.243
159 | LIRSSRLMKHPIMQIGTEVT | < -0.25
